Laboratory results from article PMC6451765 (Journal of biomolecular structure & dynamics, 2013).

Amino acid sequences for entries named in this document (tags omitted).
UniProt P41595, whole entry: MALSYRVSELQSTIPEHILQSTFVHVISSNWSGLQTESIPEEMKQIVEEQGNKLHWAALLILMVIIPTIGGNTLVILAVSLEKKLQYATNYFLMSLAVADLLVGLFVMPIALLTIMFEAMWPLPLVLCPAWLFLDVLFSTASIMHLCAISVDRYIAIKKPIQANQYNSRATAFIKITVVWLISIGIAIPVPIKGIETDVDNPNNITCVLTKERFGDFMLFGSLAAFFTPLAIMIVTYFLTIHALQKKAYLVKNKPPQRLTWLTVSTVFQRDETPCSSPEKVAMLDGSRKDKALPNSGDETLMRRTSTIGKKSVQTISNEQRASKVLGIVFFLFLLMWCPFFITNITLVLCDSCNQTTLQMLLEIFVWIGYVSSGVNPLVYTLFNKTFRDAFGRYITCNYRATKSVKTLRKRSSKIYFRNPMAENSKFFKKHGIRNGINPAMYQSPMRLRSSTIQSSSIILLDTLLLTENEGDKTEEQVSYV

Target: 5-HT2B (Homo sapiens, UniProt P41595)
Assay type: binding

CC[C@@H](CO)NC(=O)[C@@H]1C=C2c3cccc4c3c(cn4C)C[C@H]2N(C)C1 [M, methysergide, reference compound]
Ki: 19 nM
